# Laboratory results reported in the supplement of paper PMC11348887.
# Structures can show the parent of a compound that is named as a salt. The list shows a part of the results. Most values lie at the level of the controls, where differences are scatter.
# Tested on: hPSC-derived cortical neurons (WA09)
# Assay: nucleus area z-score vs screen plate; higher = larger nuclei (more mature)
# Conditions: 5 µM; treatment: days 7-14 after plating, readout day 21
row,Structure (SMILES),nucleus area z-score
1,CC(C)(C)CC(C)(C)c1ccc(OCCOCC[N+](C)(C)Cc2ccccc2)cc1 [Benzethonium Chloride],-13.4
2,C=CC(=O)Nc1cccc(Sc2nc(Nc3ccc(N4CCN(C)CC4)cc3)ncc2Cl)c1,-5.02
3,Cn1cc(-c2ccncc2)c(-c2ccc(OCc3ccc4ccccc4n3)cc2)n1,0.18
4,Fc1ccc([C@@H]2CCNC[C@H]2COc2ccc3c(c2)OCO3)cc1 [Paroxetine HCl],-0.452
5,NS(=O)(=O)c1cc(C(=O)O)c(NCc2ccco2)cc1Cl [Furosemide],-0.17
6,CCOCc1nc2c(N)nc3ccccc3c2n1CC(C)(C)O [Resiquimod],-0.361
7,O=C(COc1ccc(Cl)cc1)NC1CCC(NC(=O)COc2ccc(Cl)cc2)CC1 (stereo not drawn) [ISRIB (trans-isomer)],-0.0627
8,Cc1[nH]c2ccccc2c1CCNCc1ccc(/C=C/C(=O)NO)cc1 [Panobinostat (LBH589)],-6.31
9,CC(C(=O)O)c1ccc2c(c1)Cc1cccnc1O2 (centres undefined) [Pranoprofen],0.685
10,OC[C@H]1O[C@@H](O[C@@H]2[C@@H](CO)OC(O)(CO)[C@H]2O)[C@H](O)[C@@H](O)[C@H]1O (mixture of isomers) [Lactulose],0.196
11,COC(=O)[C@H]1[C@H]2C[C@@H]3c4[nH]c5cc(OC)ccc5c4CCN3C[C@H]2C[C@@H](OC(=O)c2cc(OC)c(OC)c(OC)c2)[C@@H]1OC [Reserpine],-1.19
12,COc1cc(C2Oc3cc([C@H]4Oc5cc(O)cc(O)c5C(=O)[C@@H]4O)ccc3OC2CO)ccc1O (some centres undefined) [Silibinin],-0.144
13,O=C(O)c1cc(/N=N/c2ccc(O)c(C(=O)O)c2)ccc1O [Olsalazine Sodium],0.872
14,OCCOc1ccc(/C(=C(/CCCl)c2ccccc2)c2ccccc2)cc1 [Ospemifene],0.31
15,O=NO [Sodium Nitrite],0.621
16,C[C@H](NC(=O)/C(C#N)=C/c1cccc(Br)n1)c1ccccc1,-0.0171
17,CCC(C)(C)c1ccc(CC(C)CN2C[C@@H](C)O[C@@H](C)C2)cc1 (some centres undefined) [Amorolfine HCl],-2.23
18,Cc1cc([C@@H](C)Nc2ccccc2C(=O)O)c2nc(N3CCOCC3)cc(=O)n2c1,-0.146
19,O=C(O)CCc1ccc(NCc2cccc(Oc3ccccc3)c2)cc1,0.502
20,Nc1nc(NCCc2ccc(O)cc2)nc2nc(-c3ccco3)nn12,-0.0445

# Structural class: the compounds so far with a carbonyl joined to an NH by a bond outside any ring.
row,Structure (SMILES),nucleus area z-score
2,C=CC(=O)Nc1cccc(Sc2nc(Nc3ccc(N4CCN(C)CC4)cc3)ncc2Cl)c1,-5.02
7,O=C(COc1ccc(Cl)cc1)NC1CCC(NC(=O)COc2ccc(Cl)cc2)CC1 (stereo not drawn) [ISRIB (trans-isomer)],-0.0627
8,Cc1[nH]c2ccccc2c1CCNCc1ccc(/C=C/C(=O)NO)cc1 [Panobinostat (LBH589)],-6.31
16,C[C@H](NC(=O)/C(C#N)=C/c1cccc(Br)n1)c1ccccc1,-0.0171

# Additional results:

row,Structure (SMILES),nucleus area z-score
1,O=c1c(-n2ccnn2)c[nH]n1-c1cc(N2CCOCC2)ncn1 [Molidustat (BAY 85-3934)],0.0347
2,O=C(NOC[C@H](O)CO)c1ccc(F)c(F)c1Nc1ccc(I)cc1F,-0.359
3,Brc1ccc([C@H]2CN3CCSC3=N2)cc1 [(-)-p-Bromotetramisole Oxalate],-0.02
4,Cc1cc(C)nc(NS(=O)(=O)c2ccc(N)cc2)n1 [Sulfamethazine],1.03
5,CCNC(=O)[C@H]1O[C@@H](n2cnc3c(N)nc(NCCc4ccc(CCC(=O)O)cc4)nc32)[C@H](O)[C@@H]1O,-0.362
6,COC1=C2C[C@@H](C)C[C@H](OC)[C@H](O)[C@@H](C)/C=C(\C)[C@H](OC(N)=O)[C@@H](OC)/C=C\C=C(/C)C(=O)NC(=CC1=O)C2=O [Geldanamycin],0.334
7,CN1CCN(C(c2ccccc2)c2ccccc2)CC1 [Cyclizine 2HCl],0.203
8,CCN1CCC[C@H]1CNC(=O)c1cc(S(N)(=O)=O)ccc1OC [Levosulpiride],0.415
9,CS(=O)(=O)c1ccc(C2=C(c3ccccc3)C(=O)OC2)cc1 [Rofecoxib],1.13
10,O=C1Nc2ccc(Cl)cc2[C@@](C#CC2CC2)(C(F)(F)F)O1 [Efavirenz],0.58
11,CC(=O)O[C@]1(C(C)=O)CC[C@H]2[C@@H]3C=C(Cl)C4=CC(=O)[C@@H]5C[C@@H]5[C@]4(C)[C@H]3CC[C@@]21C [Cyproterone Acetate],-0.0968
12,CN(C)[C@@H]1C(O)=C(C(N)=O)C(=O)[C@@]2(O)C(O)=C3C(=O)c4c(O)cccc4[C@@](C)(O)[C@H]3C[C@@H]12 [Tetracycline HCl],-0.142
13,C=C[C@](C)(O)CC[C@@H]1[C@@]2(C)CCCC(C)(C)[C@@H]2CC[C@@]1(C)O [Sclareol],-0.192
14,O=C1CN(/N=C/c2ccc(-c3ccc([N+](=O)[O-])cc3)o2)C(=O)N1 [Dantrolene sodium hemiheptahydrate],0.449
15,CC(C)N(CCCNC(=O)Nc1ccc(C(C)(C)C)cc1)C[C@H]1O[C@@H](n2ccc3c(N)ncnc32)[C@H](O)[C@@H]1O,0.0568
16,CC(C)c1cc(-c2n[nH]c(=O)n2-c2ccc3c(ccn3C)c2)c(O)cc1O [Ganetespib (STA-9090)],-5.13
17,CN(C)[C@@H](CCOc1cccc2ccccc12)c1ccccc1 [Dapoxetine HCl],-0.0415
18,Cc1ccc(Sc2cncc3sc(C(N)=O)cc23)cc1,1.3
19,NC(N)=NCCCC(N)C(=O)NCC(=O)NC(CC(=O)O)C(=O)O (stereo not drawn) [RGD (Arg-Gly-Asp) Peptides],1.18
